# Assay results from PubChem BioAssay AID248 (DTP/NCI, 2004).
# The list shows only some results of the screen, not a fair sample: it gathers tests that were run many times, whatever their T/C, doses with no T/C, and many T/C values between a quarter and a half above the control. Other doses and runs of a compound stand elsewhere. T/C is the treated group as % of the vehicle group. Some entries give survivors of the animals treated and no T/C: the source holds a T/C of zero for them, seemingly a mark for toxic or unscored doses. Some doses without a T/C left all or most animals alive at the check, yet need not have been tolerated: the source hardly ever lists a survival T/C far under the control, and the zero likely stands for such cases as well. Counts of survivors are from the toxicity check (mostly the fifth day) where no day follows; animals may have died later. Schedule codes are those of the source, read here as Q, the interval in days (D) or hours (H), X, the number of doses. Some entries were tested several times; the values are given in rising order. Some schedules carry Z or #; the key to these is not given. For survival time, this PubChem deposit counts one and a half times the control or more as active, and values a quarter to a half above the control carry no call in these data; other NCI protocols may use other cut-offs.
# Test system: L1210 leukemia ip in BDF1 mice, survival T/C
# Experiment: NCI In Vivo Anticancer Drug Screen. Data for tumor model L1210 Leukemia (intraperitoneal) in B6D2F1 (BDF1) mice
# Conditions: T/C endpoint: mean survival time, higher T/C = longer survival
# [1] = dose: 400.0 mg/kg/injection, schedule: Q01DX009 (ip), vehicle: saline with Tween-80
# [2] = dose: 200.0 mg/kg/injection, schedule: Q04DX002 (ip), vehicle: saline with Tween-80
# [3] = dose: 400.0 mg/kg/injection, schedule: Q04DX003 (ip), vehicle: saline
# [4] = dose: 400.0 mg/kg/injection, schedule: Q01DX009 (ip), vehicle: saline
# [5] = dose: 200.0 mg/kg/injection, schedule: Q01DX009 (ip), vehicle: saline
# [6] = dose: 400.0 mg/kg/injection, schedule: Q01DX009 (ip), vehicle: Klucel (hydroxypropylcellulose) (HPC)
# [7] = dose: 200.0 mg/kg/injection, schedule: Q01DX009 (ip), vehicle: saline with Tween-80
smiles,measurement,setting,value
CC(=O)Nc1nc(=O)n(CC(=O)c2cccs2)cc1F,survivor count,[1],1 of 6
same,survivor count,"dose: 600.0 mg/kg/injection, schedule: Q01DX009 (ip), vehicle: saline with Tween-80",0 of 6
CC(=O)C1(c2ccccc2)OC1c1ccccc1 (stereo not given),survivor count,"dose: 400.0 mg/kg/injection, schedule: Q04DX003 (ip), vehicle: Klucel (hydroxypropylcellulose) (HPC)",1 of 6
O=C(O)[C@@H]1C[C@H]1c1ccccc1,survivor count,[2],3 of 3
same,survivor count,"dose: 400.0 mg/kg/injection, schedule: Q04DX002 (ip), vehicle: saline with Tween-80",3 of 3
CCN(CC)CCN1CC(=O)Nc2cc(Cl)ccc21,survivor count,"dose: 200.0 mg/kg/injection, schedule: Q04DX003 (ip), vehicle: saline",2 of 6
same,survivor count,[3],0 of 6
C#CC(NCCC(C)CC(C)(C)C)C(C)C (stereo not given),survivor count,"dose: 400.0 mg/kg/injection, schedule: Q04DX003 (ip), vehicle: saline with Tween-80",5 of 6
CC(C)=NNC(N)=O,survivor count,"dose: 100.0 mg/kg/injection, schedule: Q04DX002 (ip), vehicle: saline",1 of 3 and 2 of 3
same,survivor count,"dose: 200.0 mg/kg/injection, schedule: Q04DX002 (ip), vehicle: saline",0 of 3
same,survivor count,"dose: 400.0 mg/kg/injection, schedule: Q04DX002 (ip), vehicle: saline",0 of 3
C1CC2(CCN1)SSC1(CCNCC1)S2,survivor count,[4],0 of 6
Nc1ccccc1Sc1ccc2c3c(cccc13)C(=O)N(c1ccccc1)C2=O,survivor count,[2],3 of 3
O=C(CCl)c1cnc2ccccc2n1,survivor count,"dose: 75.0 mg/kg/injection, schedule: Q01DX001 (ip), vehicle: saline",0 of 6
same,survivor count,"dose: 150.0 mg/kg/injection, schedule: Q01DX001 (ip), vehicle: saline",0 of 6
same,survivor count,"dose: 300.0 mg/kg/injection, schedule: Q01DX001 (ip), vehicle: saline",0 of 6
O=c1ccc2c(ccc3ncccc32)o1,survivor count,"dose: 200.0 mg/kg/injection, schedule: Q01DX009 (ip), vehicle: carboxymethylcellulose (CMC)",0 of 6
CN=C(NC)c1ccc(NC(=O)c2ccc(C(=O)Nc3ccc(C(=NC)NC)cc3)c([N+](=O)[O-])c2)cc1,survivor count,"dose: 15.0 mg/kg/injection, schedule: Q01DX Z (ip), vehicle: saline",1 of 6 and 3 of 6
same,survivor count,"dose: 30.0 mg/kg/injection, schedule: Q01DX Z (ip), vehicle: saline",0 of 6
same,survivor count,"dose: 60.0 mg/kg/injection, schedule: Q01DX Z (ip), vehicle: saline",0 of 6
same,survivor count,"dose: 120.0 mg/kg/injection, schedule: Q01DX Z (ip), vehicle: saline",0 of 6
Cc1nc(N)[nH]c(=O)c1/C=C\C(=O)c1ccccc1,survivor count,"dose: 50.0 mg/kg/injection, schedule: Q01DX001 (ip), vehicle: carboxymethylcellulose (CMC)",4 of 4
COc1ccc(Cc2nccc3c(OC)c(OC)ccc23)cc1OC,survivor count,[5],4 of 6
same,survivor count,[3],0 of 6
Cc1ccc(C)c(NC(=O)Oc2ccc(Cl)cc2Cl)c1,survivor count,"dose: 100.0 mg/kg/injection, schedule: Q01DX009 (ip), vehicle: Klucel (hydroxypropylcellulose) (HPC)",6 of 6
same,survivor count,"dose: 200.0 mg/kg/injection, schedule: Q01DX009 (ip), vehicle: Klucel (hydroxypropylcellulose) (HPC)",5 of 6
same,survivor count,[6],4 of 6
CCC(CO)NC(=O)C1C=C2c3cccc4c3c(cn4C)CC2N(C)C1 (stereo not given),survivor count,[6],3 of 6
CCCCCCCCCCCCCCCCCCSC(=N)N,survivor count,[7],5 of 6
same,survivor count,[1],3 of 6
CCN1CCc2ccccc2C1c1ccccc1 (stereo not given),survivor count,[5],1 of 6
same,survivor count,[4],0 of 6
CN(C)c1ccc(/C=N/NC(=O)C2CCCO2)c(Cl)c1 (stereo not given),survivor count,[6],0 of 6
O=C(NC/C=C/Br)Nc1c2ccccc2nc2ccccc12,survivor count,"dose: 100.0 mg/kg/injection, schedule: Q01DX009 (ip), vehicle: saline",0 of 6
same,survivor count,[5],0 of 6
same,survivor count,[4],0 of 6
COc1ccc(CCC(C)=O)cc1OC,survivor count,[6],3 of 6
CN(C)N=Nc1ccc(C(=O)NN)cc1,T/C,"dose: 75.0 mg/kg/injection, schedule: Q01DX Z (ip), vehicle: carboxymethylcellulose (CMC)",134 % of control
same,T/C,"dose: 100.0 mg/kg/injection, schedule: Q01DX Z (ip), vehicle: carboxymethylcellulose (CMC)",129 % of control
C=C1N(C)c2ccccc2C1(C)C,survivor count,"dose: 16.0 mg/kg/injection, schedule: Q01DX015 (ip), vehicle: carboxymethylcellulose (CMC)",3 of 6
C[n+]1ccn(Cc2ccc([N+](=O)[O-])cc2)c1,T/C,"dose: 50.0 mg/kg/injection, schedule: Q04DX003 (ip), vehicle: saline with Tween-80",146 % of control
CCCCCCCCC1N(C)CCCN1C,survivor count,"dose: 100.0 mg/kg/injection, schedule: Q01DX009 (ip), vehicle: saline with Tween-80",0 of 6
same,survivor count,"dose: 200.0 mg/kg/injection, schedule: Q01DX001 (ip), vehicle: saline with Tween-80",5 of 6
same,survivor count,[7],3 of 6
same,survivor count,"dose: 400.0 mg/kg/injection, schedule: Q01DX001 (ip), vehicle: saline with Tween-80",1 of 6
